{
  "sequences": {"note": "Chains of the proteins cited; added tags and fusions are not shown. Residues count along the entry.", "UniProt P00592, 23-146": "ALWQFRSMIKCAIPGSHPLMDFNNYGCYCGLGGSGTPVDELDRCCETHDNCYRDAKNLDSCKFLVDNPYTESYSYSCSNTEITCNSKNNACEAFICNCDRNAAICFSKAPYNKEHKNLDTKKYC"},
  "source": "patent US20080139520A1",
  "about": "“Altering cholesterol and fat uptake by novel allosteric inhibitors of pancreatic phospholipase A2” (priority 2006, published 2008)",
  "key": {"PLA2 [1]": {"molecular_target": "T1, PLA2 (Sus scrofa, UniProt P00592)", "T1 construct": "made in house", "test": "Alkylation (inactivation) time of His-48 of PLA2 by p-nitrophenacylbromide", "format": "biochemical, pig", "conditions": "0.2 mM bile salt, with or without calcium"}, "PLA2 [2]": {"molecular_target": "T1, PLA2", "test": "Isothermal calorimetric titration of PLA2 with bile salt", "format": "binding, pig", "conditions": "ITC, 8.5 μM PLA2", "procedure": "ITC titration of PLA2 with <1 mM (below the CMC) bile salt stock solution was carried out on the Microcal calorimeter (model VP-itc) with cell volume of 1.42 ml with stirring at 300 rpm. Successive injections were made every 5 min. Standard software was used for the peak integration. The heat change with the internal calibration associated with the dilution of the titrant in the […] was subtracted from the heat change obtained by the injection of the bile salt in the presence of 8.5 μM PLA2. The net heat change per injection in the presence of PLA2 was integrated to obtain the total heat change as a function of the total added amphiphile concentration."}},
  "note": "Some results were stated once for a whole list of compounds, not compound by compound. For part of these data: For at least one compound, name, drawing or mass did not settle the structure.",
  "data": [
    {"smiles": "C[C@H](CCC(=O)NCCS(=O)(=O)O)[C@H]1CC[C@H]2[C@@H]3[C@H](O)C[C@@H]4C[C@H](O)CC[C@]4(C)[C@H]3CC[C@]12C", "note": "[TCDOC, taurochenodeoxycholate]", "values": [
      {"measurement": "increase of alkylation time of His-48", "setting": "PLA2 [1]", "result": "< 2", "unit": "fold"}
    ]},
    {"smiles": "C[C@H](CCC(=O)O)[C@H]1CC[C@H]2[C@@H]3[C@@H](O)C[C@@H]4C[C@H](O)CC[C@]4(C)[C@H]3CC[C@]12C", "note": "[UDOC, ursodeoxycholate]", "values": [
      {"measurement": "ΔH", "setting": "PLA2 [2]", "result": "−12 to −16", "unit": "kcal/mole"}
    ]},
    {"smiles": "C[C@H](CCC(=O)O)[C@H]1CC[C@H]2[C@@H]3[C@H](O)C[C@@H]4C[C@H](O)CC[C@]4(C)[C@H]3C[C@H](O)[C@]12C", "note": "[cholate, reference compound]", "values": [
      {"measurement": "increase of alkylation time of His-48", "setting": "PLA2 [1]", "result": "< 2", "unit": "fold"}
    ]}
  ]
}
